PubChem BioAssay AID1259308 – NCATS – 2017
Purpose: 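Candidate targets for better recombinant protein yield in mammalian cells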 (primary screen). Cells: human HEK293 embryonic kidney cells stably expressing firefly luciferase (HEK-CMV-Luc2-Hygro). Knock-down reagent: single siRNA against human genes, 0.8 pmol siRNA per well. Time to read-out: 72 h. Detection: 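Luciferase light (ONE-Glo) measured on one replicate plate set and viability (CellTiter-Glo) on the other, scaled to a negative control siRNA, with robust z-scores and luciferase per cell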. Scale: total luciferase, z-score and total luciferase, % of control: higher = more reporter protein produced; luciferase per cell, z-score: higher = more reporter output per viable cell; viable cells, % of control: higher = more viable cells. Active means: 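An siRNA counts as active if its total luciferase robust z-score exceeds 3; genes with two or more such siRNAs out of three were retested with fresh siRNAs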. Meaning of the calls: active = raised luciferase; inactive = no rise.
Shown is a random part of about 59,000 reagents tested. About 1,510 of all reagents (2.6%) count as active. 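Calls use total luciferase alone and ignore viability, so some active siRNAs may act by altering cell number.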 Entries without a mark were called inactive. The numbers tell different reagents against one gene apart.

no.	target gene	reagent no.	total luciferase, z-score	total luciferase, % of control	luciferase per cell, z-score	viable cells, % of control
1	RAB33B	1	0.0815	83.5	-0.409	104
2	RAB33B	2	2.31	128	1.21	104
3	RAB33B	3	-0.886	64.3	-0.878	90.5
4	USP46-DT	1	-2.9	24.2	-2.71	55.1
5	USP46-DT	2	-0.182	78.3	0.00105	87.4
6	USP46-DT	3	0.0283	82.4	-0.135	95.5
7	LINC00687	1	0.123	84.3	0.642	79.6
8	LINC00687	2	-0.245	77	0.01	85.8
9	LINC00687	3	-0.487	72.2	-1.02	106
10	RPS10P15	1	0.428	90.4	0.145	97.2
11	RPS10P15	2	1.72	116	2.28	71.2
12	RPS10P15	3	-0.599	70	-0.562	90.7
13	CDK2	1	-0.195	78	-0.365	96
14	CDK2	2	1.57	113	1.44	86.5
15	CDK2	3	-0.914	63.7	-0.774	87.3
16	EGR2	1	0.122	84.3	0.0346	93.4
17	EGR2	2	0.0582	83	-0.196	97.7
18	EGR2	3	0.115	84.2	-0.323	102
19	HEATR1	1	1.34	109	1.91	73.3
20	HEATR1	2	-0.923	63.5	-0.487	80.7
21	HEATR1	3	-0.451	72.9	0.029	80.9
22	GAREM2	1	-0.695	68.1	-0.613	89.4
23	GAREM2	2	-0.796	66.1	-0.241	78.6
24	GAREM2	3	-0.0796	80.3	-0.239	95.6
25	ATG4B	1	-1.87	44.7	-1.16	67.7
26	ATG4B	2	-1.74	47.3	-1.42	76.7
27	ATG4B	3	0.807	97.9	2.2	61.4
28	C1orf74	1	0.182	85.5	0.846	76.5
29	C1orf74	2	0.711	96	0.593	91.8
30	C1orf74	3	0.723	96.3	0.271	100
31	DUX4L16	1	-0.284	76.2	-0.187	89.5
32	DUX4L16	2	-0.31	75.7	-1.15	114
33	DUX4L16	3	-0.103	79.8	0.0461	88.1
34	FRG2C	1	0.361	89.1	-0.44	112
35	FRG2C	2	-0.36	74.7	-0.206	88.1
36	FRG2C	3	-0.144	79	-0.712	106
37	SH2D4A	1	-0.775	66.5	-0.86	93.2
38	SH2D4A	2	2.14	124	1.61	91
39	SH2D4A	3	-0.727	67.4	-0.08	77
40	ATXN2L	1	0.377	89.4	-0.134	103
41	ATXN2L	2	-0.909	63.8	-0.713	86
42	ATXN2L	3	1.06	103	0.474	102
43	OR4K2	1	6.74 (active)	216	4.1	82
44	OR4K2	2	0.256	87	-0.341	106
45	OR4K2	3	-0.029	81.3	-0.264	97.4
46	NPY1R	1	2.08	123	2.28	75.6
47	NPY1R	2	0.115	84.2	-0.371	104
48	NPY1R	3	0.219	86.2	0.587	82.6
49	RABIF	1	-1.88	44.5	-1.21	68.5
50	RABIF	2	3 (active)	142	2.54	81.1
51	RABIF	3	1.02	102	0.23	107
52	COPS4	1	-2.73	27.6	-2.42	58.3
53	COPS4	2	-0.78	66.4	-0.561	86
54	COPS4	3	-0.0481	80.9	-0.331	98.7
55	ABCD3	1	-0.422	73.5	-0.765	100
56	ABCD3	2	-0.831	65.4	-1.54	109
57	ABCD3	3	-0.466	72.6	-0.24	86.4

Already shown: entries from further up.
no.	target gene	reagent no.	total luciferase, z-score	total luciferase, % of control	luciferase per cell, z-score	viable cells, % of control
10	RPS10P15	1	0.428	90.4	0.145	97.2
11	RPS10P15	2	1.72	116	2.28	71.2
12	RPS10P15	3	-0.599	70	-0.562	90.7
13	CDK2	1	-0.195	78	-0.365	96
14	CDK2	2	1.57	113	1.44	86.5
15	CDK2	3	-0.914	63.7	-0.774	87.3
16	EGR2	1	0.122	84.3	0.0346	93.4
17	EGR2	2	0.0582	83	-0.196	97.7
18	EGR2	3	0.115	84.2	-0.323	102
